Experimental data reported in article PMC12097128.
These are yes or no findings as the source states them, for the method shown. Binding seen in cells or lysates may run through a third protein. Some entries that bind do so weakly or less than the wild type. For some assays here: Sequences can lack the tags named with a protein. One block for each molecule: values may come before it.

The chains behind the UniProt entries cited, without tags or fusion partners. Where a name states a change or a piece, a line headed by the entry shows the natural chain unless it says otherwise. A line that says so, or that is headed by a name, gives the form on record, which may keep a tag or linker. Residues count along the entry.
UniProt P05161: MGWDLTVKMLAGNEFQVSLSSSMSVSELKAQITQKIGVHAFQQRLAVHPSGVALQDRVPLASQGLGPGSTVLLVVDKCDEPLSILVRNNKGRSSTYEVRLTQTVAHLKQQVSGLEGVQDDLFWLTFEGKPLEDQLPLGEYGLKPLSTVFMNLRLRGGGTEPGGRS
Myc-ISG15-AA (P05161, form named): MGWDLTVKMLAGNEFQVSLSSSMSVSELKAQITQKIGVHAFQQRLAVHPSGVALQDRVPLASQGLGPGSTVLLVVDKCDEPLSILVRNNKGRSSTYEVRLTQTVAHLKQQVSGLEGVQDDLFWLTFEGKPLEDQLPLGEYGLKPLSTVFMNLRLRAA
UniProt Q64339, residues 1-155: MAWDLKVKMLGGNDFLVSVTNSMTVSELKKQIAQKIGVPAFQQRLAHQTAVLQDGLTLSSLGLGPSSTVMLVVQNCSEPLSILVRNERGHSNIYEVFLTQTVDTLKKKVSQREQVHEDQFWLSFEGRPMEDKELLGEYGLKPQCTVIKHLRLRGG

Columns and labels:
[1] = molecular target: T1, Flag-GCLM (Flag-tagged glutamate-cysteine ligase modifier subunit) (UniProt P48507); assay: co-IP; ISG15 truncation constructs 1-80 and 1-120 with GCLM (Figure S4E); cells and antibody of the precipitation not shown
T1 sequence: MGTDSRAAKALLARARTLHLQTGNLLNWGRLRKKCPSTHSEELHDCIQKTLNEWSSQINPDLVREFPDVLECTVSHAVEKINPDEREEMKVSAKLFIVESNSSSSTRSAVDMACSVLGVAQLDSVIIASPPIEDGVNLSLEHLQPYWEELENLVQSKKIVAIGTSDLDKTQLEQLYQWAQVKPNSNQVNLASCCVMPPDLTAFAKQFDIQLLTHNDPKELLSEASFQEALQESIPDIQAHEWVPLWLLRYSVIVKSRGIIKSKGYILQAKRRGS

[2] = molecular target: T1, Flag-GCLM (Flag-tagged glutamate-cysteine ligase modifier subunit); assay: co-IP; HEK293T co-transfected with Flag-GCLM and Myc- or HA-tagged ISG15 constructs; anti-Flag immunoprecipitates blotted with anti-Flag and anti-Myc or anti-HA; lysates with antibody and Dynabeads Protein G overnight at 4 °C, washed with pre-lysis buffer containing 50 mM NaCl
[3] = molecular target: T2, Gclm (endogenous, mouse HCC tissue) (mouse (endogenous in HCC tissue)) (UniProt O09172); assay: co-IP; endogenous proteins in mouse HCC tissue lysate; anti-Gclm immunoprecipitate blotted with anti-Gclm and anti-Isg15
T2 sequence: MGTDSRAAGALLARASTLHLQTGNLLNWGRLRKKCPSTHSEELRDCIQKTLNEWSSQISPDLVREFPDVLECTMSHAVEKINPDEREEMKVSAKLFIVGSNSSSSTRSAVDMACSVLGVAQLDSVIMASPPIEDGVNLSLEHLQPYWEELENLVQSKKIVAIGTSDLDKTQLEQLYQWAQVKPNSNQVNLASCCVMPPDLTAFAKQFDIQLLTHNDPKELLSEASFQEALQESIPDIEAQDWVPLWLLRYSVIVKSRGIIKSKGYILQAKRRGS

[4] = molecular target: T3, Gclc (endogenous, mouse HCC tissue) (mouse (endogenous in HCC tissue)) (UniProt P97494); assay: co-IP; endogenous proteins in pooled mouse HCC samples (Isg15-WT or Isg15-KO, NCD or HFD); anti-Gclc immunoprecipitates blotted with anti-Gclm and anti-Gclc
T3 sequence: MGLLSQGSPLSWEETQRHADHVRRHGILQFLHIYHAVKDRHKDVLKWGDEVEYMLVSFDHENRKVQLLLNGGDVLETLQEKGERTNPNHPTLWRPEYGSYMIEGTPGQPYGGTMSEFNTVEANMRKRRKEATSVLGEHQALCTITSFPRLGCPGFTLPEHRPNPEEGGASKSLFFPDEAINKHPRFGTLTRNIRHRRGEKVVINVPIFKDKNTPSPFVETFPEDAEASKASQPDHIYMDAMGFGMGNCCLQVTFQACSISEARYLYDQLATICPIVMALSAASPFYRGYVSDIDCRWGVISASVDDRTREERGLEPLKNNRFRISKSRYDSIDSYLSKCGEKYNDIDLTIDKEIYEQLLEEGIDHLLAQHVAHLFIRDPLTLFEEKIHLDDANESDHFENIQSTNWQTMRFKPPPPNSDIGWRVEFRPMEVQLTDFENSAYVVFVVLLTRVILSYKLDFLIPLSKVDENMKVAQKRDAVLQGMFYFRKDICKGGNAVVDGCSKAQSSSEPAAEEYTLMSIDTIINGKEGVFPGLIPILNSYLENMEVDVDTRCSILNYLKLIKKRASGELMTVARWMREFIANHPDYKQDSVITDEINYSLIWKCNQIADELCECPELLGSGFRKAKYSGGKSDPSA

[5] = molecular target: T4, GCLC overexpressed in Hep3B cells (HA-tagged GCLC) (UniProt P48506); assay: co-IP; Hep3B cells overexpressing GCLM and GCLC with or without exogenous ISG15 (Figure S4I); antibody of the precipitation not shown
T4 sequence: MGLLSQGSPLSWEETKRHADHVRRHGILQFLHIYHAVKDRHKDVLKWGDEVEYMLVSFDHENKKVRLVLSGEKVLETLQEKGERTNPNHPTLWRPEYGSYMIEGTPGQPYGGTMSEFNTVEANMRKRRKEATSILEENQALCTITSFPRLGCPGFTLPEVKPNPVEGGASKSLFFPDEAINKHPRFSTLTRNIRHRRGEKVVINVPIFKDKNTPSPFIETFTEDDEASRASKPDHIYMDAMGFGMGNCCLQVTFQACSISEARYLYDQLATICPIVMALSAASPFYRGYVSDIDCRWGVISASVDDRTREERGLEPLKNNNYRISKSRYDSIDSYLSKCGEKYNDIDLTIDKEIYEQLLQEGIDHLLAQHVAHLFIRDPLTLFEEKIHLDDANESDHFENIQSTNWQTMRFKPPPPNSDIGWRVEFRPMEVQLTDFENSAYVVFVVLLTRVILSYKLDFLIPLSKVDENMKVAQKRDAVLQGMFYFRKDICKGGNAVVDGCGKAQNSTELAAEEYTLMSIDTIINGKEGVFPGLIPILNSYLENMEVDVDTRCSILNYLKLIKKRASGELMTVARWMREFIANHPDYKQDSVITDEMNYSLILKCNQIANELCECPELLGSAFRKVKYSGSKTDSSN

[6] = molecular target: T5, GCLC (endogenous, Hep3B and HepG2 cells) (human (endogenous in Hep3B and HepG2)) (UniProt P48506); assay: co-IP; endogenous GCLC and GCLM in Hep3B and HepG2 lysates; anti-GCLC immunoprecipitates blotted for GCLC, GCLM and ISG15; cells ISG15-WT, ISG15-KO or ISG15/UBA7 dual-KO, with or without 100 µM PA for 24 h, with or without transfected HA-ISG15-GG, -AA, -84AAA or -Δ85-93
T5 sequence: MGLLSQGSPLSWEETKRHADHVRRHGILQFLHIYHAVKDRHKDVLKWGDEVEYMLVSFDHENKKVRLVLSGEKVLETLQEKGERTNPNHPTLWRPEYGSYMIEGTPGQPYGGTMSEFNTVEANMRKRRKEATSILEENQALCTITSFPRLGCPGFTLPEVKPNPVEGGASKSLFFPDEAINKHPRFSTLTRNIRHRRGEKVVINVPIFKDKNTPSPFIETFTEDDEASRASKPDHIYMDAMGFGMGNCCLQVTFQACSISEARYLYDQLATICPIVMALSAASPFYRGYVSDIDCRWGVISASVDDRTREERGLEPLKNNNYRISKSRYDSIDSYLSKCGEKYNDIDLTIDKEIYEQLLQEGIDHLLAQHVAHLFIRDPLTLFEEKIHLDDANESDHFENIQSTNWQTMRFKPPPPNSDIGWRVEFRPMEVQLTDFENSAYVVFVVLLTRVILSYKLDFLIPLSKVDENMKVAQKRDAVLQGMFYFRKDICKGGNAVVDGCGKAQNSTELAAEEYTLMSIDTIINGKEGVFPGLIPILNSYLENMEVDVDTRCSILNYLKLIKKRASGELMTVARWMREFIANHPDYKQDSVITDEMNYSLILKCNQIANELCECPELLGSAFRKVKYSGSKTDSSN

Molecule: Myc-ISG15-AA (from UniProt P05161 1-157)
binding [2]: binds

Molecule: Isg15 (endogenous, mouse HCC tissue) (from UniProt Q64339 1-155)
binding [3]: binds

Molecule: Myc-ISG15-GG (from UniProt P05161 1-157)
binding [2]: binds

Molecule: HA-ISG15-GG (from UniProt P05161 1-157)
binding [2]: binds

B2: GCLM overexpressed in Hep3B cells (Flag-tagged GCLM) (protein, UniProt P48507 1-274)
chain: MGTDSRAAKALLARARTLHLQTGNLLNWGRLRKKCPSTHSEELHDCIQKTLNEWSSQINPDLVREFPDVLECTVSHAVEKINPDEREEMKVSAKLFIVESNSSSSTRSAVDMACSVLGVAQLDSVIIASPPIEDGVNLSLEHLQPYWEELENLVQSKKIVAIGTSDLDKTQLEQLYQWAQVKPNSNQVNLASCCVMPPDLTAFAKQFDIQLLTHNDPKELLSEASFQEALQESIPDIQAHEWVPLWLLRYSVIVKSRGIIKSKGYILQAKRRGS
binding [5]: binds

Next, values leading:

binding [1]: binds
Molecule: HA-ISG15-1-120 (from UniProt P05161 1-120) (domain or fragment)

binding [4]: binds
B1: Gclm (endogenous, mouse HCC tissue) (protein, UniProt O09172 1-274)
chain: MGTDSRAAGALLARASTLHLQTGNLLNWGRLRKKCPSTHSEELRDCIQKTLNEWSSQISPDLVREFPDVLECTMSHAVEKINPDEREEMKVSAKLFIVGSNSSSSTRSAVDMACSVLGVAQLDSVIMASPPIEDGVNLSLEHLQPYWEELENLVQSKKIVAIGTSDLDKTQLEQLYQWAQVKPNSNQVNLASCCVMPPDLTAFAKQFDIQLLTHNDPKELLSEASFQEALQESIPDIEAQDWVPLWLLRYSVIVKSRGIIKSKGYILQAKRRGS

binding [6]: binds
B3: GCLM (endogenous, Hep3B and HepG2 cells) (protein, UniProt P48507 1-274)
chain: MGTDSRAAKALLARARTLHLQTGNLLNWGRLRKKCPSTHSEELHDCIQKTLNEWSSQINPDLVREFPDVLECTVSHAVEKINPDEREEMKVSAKLFIVESNSSSSTRSAVDMACSVLGVAQLDSVIIASPPIEDGVNLSLEHLQPYWEELENLVQSKKIVAIGTSDLDKTQLEQLYQWAQVKPNSNQVNLASCCVMPPDLTAFAKQFDIQLLTHNDPKELLSEASFQEALQESIPDIQAHEWVPLWLLRYSVIVKSRGIIKSKGYILQAKRRGS
